The list shows a part of the results. The main result of the screen is listed elsewhere. These columns were measured beside it and carry no call. The list favours compounds with an active or inconclusive main result. The note in brackets gives the kind of curve behind each potency; many fits are weak.
Assay: qHTS Assay to Find Inhibitors of Chronic Active B-Cell Receptor Signaling
Details: ABC-DLBCL IkBa-CBG/CBR reporter, luminescence ratio (green luciferase fused to IkBa over red control in TMD8 lymphoma cells), 4 h
Summary of the method: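 Doxycycline induced both beetle luciferases in TMD8 lymphoma cells; IKK-driven degradation limits the IkappaBalpha-fused green signal, while red luminescence normalises for cell number and nonspecific effects. Compounds tested up to 46 uM, 4 hrs.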

[1] = measured here: CBR red luminescence, cell number
[2] = measured here: IkBa-CBG green luminescence

Structure (SMILES) | AC50 [1] | AC50 [2]
CC1CCCCN1C(=S)Nc1ccc(OC(F)F)cc1 (stereo not drawn) | 25.9 µM [rising, single point] | –
Cc1ccc(NC(=O)c2ccc(S(=O)(=O)N3CCCCC3)cc2)cc1 | 2.51 µM [falling, partial curve, poor fit] | –
COc1ccccc1NC(=O)c1c(Nc2ccccc2C)sc(C(=O)Nc2cccc(Cl)c2)c1N | 18.4 µM [falling, single point] | 23.1 µM [rising, single point]
COc1ccc(CCNc2nc(-c3cccc(NC(C)=O)c3)cs2)cc1OC | 35.5 µM [falling, single point] | –
c1ccc(Cn2c(NCc3ccncc3)nc3ccccc32)cc1 | 5.62 µM [falling, single point] | –
CC1CN(c2nc3ccccn3c(=O)c2/C=C(\C#N)C(N)=O)CC(C)O1 (stereo not drawn) | 31.6 µM [rising, single point] | –
CCOc1ccc(N2C(=O)C(CC(=O)Nc3ccc(F)cc3)N(Cc3ccccn3)C2=S)cc1 (stereo not drawn) | 28.2 µM [falling, single point] | –
Cc1ccc(NC(=O)CN2C(=O)NC3(CCc4ccccc43)C2=O)cc1S(=O)(=O)N1CCCCC1 (stereo not drawn) | 5.17 µM [falling, partial curve, poor fit] | 3.26 µM [rising, partial curve, poor fit]
O=C(CN1CCN(c2ccc(F)cc2)CC1)NCc1ccc(Cl)cc1 | 6.31 µM [falling, partial curve, poor fit] | –
CCn1cc(S(=O)(=O)N2CCCC2)cn1 | 35.5 µM [falling, partial curve, poor fit] | –
Cc1ccc(C)c(NC(=S)N2CCC(c3nc4ccccc4s3)CC2)c1 | 35.5 µM [falling, partial curve, poor fit] | –
O=C(Cc1ccc(Br)cc1)NCCc1ccc(Cl)cc1Cl | 0.082 µM [falling, full curve, poor fit] | –
Cc1c(C#N)c2ccccc2n1CCOc1ccccc1F | 22.4 µM [falling, single point] | –
O=C(COC(=O)c1ccc(O)cc1)NCc1ccc2c(c1)OCO2 | 31.6 µM [falling, single point] | –
C=CC[C@@H](CC(=O)N(CCO)Cc1ccccc1)C(=O)N[C@H](COC(=O)[C@@H](CC=C)CC(=O)OC(C)(C)C)c1ccccc1 | 16.4 µM [falling, single point] | –
C(=N\NC1=Nc2cccc3cccc1c23)/c1ccccc1 | 20.6 µM [falling, partial curve] | –
CCOC(=O)c1c(NC(=O)CNCC(O)CO)sc(C)c1C (stereo not drawn) | 10 µM [falling, partial curve, poor fit] | –
C/C(=N\NC(=O)Nc1ccccc1)c1ccccc1 | 6.51 µM [rising, single point] | –
Cc1ccccc1-c1nnn(Cc2ccc(-c3nn[nH]n3)cc2)n1 | 35.5 µM [falling, single point] | –
O=C(CCC(=O)N1CCN(c2ccccn2)CC1)Nc1nnc(C2CCCCC2)s1 | 15.8 µM [rising, partial curve, poor fit] | –
COC(=O)CSc1nnc(-c2ccc(OC)c(OC)c2)o1 | 35.5 µM [falling, single point] | –

Three entries already listed, arranged by formula weight, high to low:
Structure (SMILES) | AC50 [1] | AC50 [2]
COc1ccc(CCNc2nc(-c3cccc(NC(C)=O)c3)cs2)cc1OC | 35.5 µM [falling, single point] | –
Cc1ccc(C)c(NC(=S)N2CCC(c3nc4ccccc4s3)CC2)c1 | 35.5 µM [falling, partial curve, poor fit] | –
O=C(COC(=O)c1ccc(O)cc1)NCc1ccc2c(c1)OCO2 | 31.6 µM [falling, single point] | –

Continuation:

Structure (SMILES) | AC50 [1] | AC50 [2]
CC1=CC(C)(C)Nc2ccc(OC(=O)c3cccnc3)cc21 | 3.16 µM [falling, full curve, poor fit] | –
Cc1nc2ccccn2c1-c1csc(NCc2ccco2)n1 | 25.9 µM [rising, partial curve] | –
CCO[C@@H]1OC(C(=O)Nc2ccccc2)=C[C@H](C2CC2)[C@H]1CCCO | 0.708 µM [rising, full curve, poor fit] | –
O=S(=O)(NCc1ccncc1)c1ccc(Br)s1 | – | 6.51 µM [rising, single point]
C/C(=N\Nc1nccnc1Cl)c1ccc(F)cc1 | 12.6 µM [falling, partial curve, poor fit] | –
Cn1c(=NC(=O)c2cccc([N+](=O)[O-])c2)sc2ccccc21 | 0.0891 µM [rising, full curve, poor fit] | –
COc1ccc(CCNC(=O)c2c(-c3ccccc3Cl)noc2C)cc1 | 13 µM [rising, partial curve, poor fit] | –
Fc1ccc(NC(=S)N/N=C/c2ccc(F)c(F)c2)cc1 | – | 8.91 µM [falling, partial curve]
Cc1ccc(C)c(OCc2cc(C(=O)N3CCNC(=O)C3)no2)c1 | 5.62 µM [rising, single point] | –
O=C(Nc1nnc(Cc2ccccc2)s1)Nc1ccccc1F | 2.51 µM [rising, partial curve, poor fit] | –
Oc1cc(-c2ccncc2)cc2cccnc12 | 18.4 µM [falling, partial curve] | –
Cc1ccc(/C=C/C(=O)Nc2ccc(Oc3ccccc3)cc2)o1 | 13 µM [falling, partial curve, poor fit] | –
COc1cc(C(=O)Nc2ccc3c(c2)N(C(=O)CCN(C)C)c2ccccc2CC3)cc(OC)c1OC | 35.5 µM [falling, single point] | –
CC(NC(=O)c1ccco1)c1nc(-c2ccccc2)no1 (stereo not drawn) | 35.5 µM [rising, partial curve, poor fit] | –
CCOC(=O)C1=C(C)N(CC)C(=S)NC1c1ccc(Cl)cc1 (stereo not drawn) | 18.4 µM [falling, partial curve] | 16.4 µM [rising, partial curve, poor fit]
CN1CCC(N(C)C(=O)COc2ccccc2Cl)CC1 | 0.82 µM [rising, full curve, poor fit] | –
Cc1cc2nc(-c3ccccc3)cc(=O)n2[nH]1 | 0.178 µM [falling, full curve, poor fit] | –
O=C(CCCN1C(=O)c2cccc3cccc(c23)C1=O)N1CCN(c2ccccc2O)CC1 | 2.31 µM [rising, partial curve, poor fit] | 23.1 µM [rising, partial curve, poor fit]
O=C1COc2ccc(C(=O)COC(=O)c3ccc([N+](=O)[O-])cc3Cl)cc2N1 | 6.51 µM [rising, single point] | 5.17 µM [falling, partial curve, poor fit]
COc1cc(/C=N/OCC(=O)NC2CCCCC2)ccc1OCc1ccccc1 | 0.00517 µM [rising, full curve, poor fit] | –
CN1C(=S)SC(C)(C)C1N(O)C(=O)Nc1ccc(Cl)cc1 (stereo not drawn) | 2.82 µM [rising, single point] | –

Structure (SMILES) | AC50 [1] | AC50 [2]
Cc1ccc(-c2cc(C(=O)NC3CCCC3)no2)cc1 | 7.08 µM [falling, full curve] | –
CC(C)(C)c1ccc(C(=O)N2CCN(Cc3ccccc3)CC2)cc1 | 8.91 µM [falling, partial curve] | –
COc1ccc(-c2cc(=Nc3ccc(C(=O)O)cc3)c3cc(C)ccc3o2)cc1 | 0.891 µM [rising, full curve, poor fit] | –
CC(=O)CCC1CC(c2ccc(Cl)cc2)=NO1 (stereo not drawn) | 2.91 µM [falling, full curve] | –
Cc1cc(C(=O)NNC(=O)c2ccc(Cl)cc2Cl)c(C)o1 | 23.1 µM [falling, partial curve, poor fit] | –
C=CCC[C@H](Cc1ccc(F)cc1)C(=O)OC[C@@H](C)NC(=O)[C@@H](CC=C)CC(=O)N[C@H](CO)Cc1ccccc1 | 13 µM [falling, partial curve] | –
COc1ccccc1-n1ccnc(SCC(=O)NC2CCCC2)c1=O | 1.64 µM [falling, partial curve, poor fit] | –
COc1ccc(OC)c(NC(=O)COC(=O)C2CCN(C(=O)c3ccc(Cl)cc3)CC2)c1 | 15.8 µM [rising, single point] | –
COc1ccc2c(c1)CC/C2=N\NC(=O)c1ccccc1 | 20.6 µM [falling, partial curve] | –
CCOC(=O)[C@@H]1[C@H]2COc3ccc(Br)cc3[C@H]2N2C(=O)N(c3ccc(C(F)(F)F)cc3)C(=O)[C@]12C | 23.1 µM [falling, partial curve] | –
CCc1ccc(NC(=S)N(CCCN2CCN(C)CC2)Cc2cccs2)cc1 | 25.9 µM [falling, single point] | –
CN(/N=C/c1ccc(Cl)cc1)c1ncc(Cl)cc1C(F)(F)F | 12.6 µM [rising, single point] | –
O=C(Cn1cccc1)Nc1ccc(F)cc1F | 3.16 µM [falling, single point] | –
O=C(CSc1c2c(nc3ccccc13)CCCC2)NCc1ccco1 | 4.47 µM [falling, full curve] | –
CC(C)(C)c1cc(-c2nc(N)nc(N)n2)c(O)c(C(C)(C)C)c1 | 11.6 µM [rising, partial curve] | –
CCn1c([N+](=O)[O-])nc2c1c(=O)[nH]c(=O)n2C | 10 µM [falling, partial curve] | 5.62 µM [falling, single point]
COc1ccc(N2CCN(C(c3nnnn3C3CCCC3)C(C)C)CC2)cc1 (stereo not drawn) | 12.6 µM [rising, partial curve] | –
N#CC1=C(N)NC(SCc2ccccc2)=C(C#N)C12CCCC2 | – | 18.4 µM [falling, single point]
CC1(C(=O)Nc2nnc(C(C)(C)C)s2)Cc2ccccc2C(=O)O1 (stereo not drawn) | 3.16 µM [falling, single point] | –
COc1ccc(CCNc2ncnc3c2[nH]c2cc(OC)c(OC)cc23)cc1OC | 17.8 µM [falling, single point] | –

From PubChem BioAssay AID493014 (National Center for Advancing Translational Sciences (NCATS), 2011)
